The values that follow come from the supplement of paper PMC10735217.

The list shows a part of the results. Single values are uncertain here, since repeats match poorly.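 In a drug-repurposing library screen, luminescence reads luciferase driven by eight TEAD-binding elements, stably integrated into human kidney-derived cells. Compounds scoring over five robust Z scores above the plate mean are called hits.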

The subject of the test is HEK293A TEAD-LUC reporter. Briefly: TEAD-luciferase reporter activity (YAP activation), robust Z score vs plate; higher = stronger YAP/TEAD activation. Particulars: 24 h.

Regarding `OC1(c2cccs2)CCC(CCN2CCN(c3ccccn3)CC2)CC1` (stereo not drawn), the TEAD-luciferase reporter activity (compound concentration: 200 nM) was inactive: -0.443, the TEAD-luciferase reporter activity (compound concentration: 2 uM) was inactive: -0.907 and the TEAD-luciferase reporter activity (compound concentration: 10 uM) is inactive: -0.0429.

On to `CCCCCCCCOC(=O)C1=C(C)NC(C)=C(C(=O)NC2CC2)C1c1ccccc1[N+](=O)[O-]` (stereo not drawn), for which the TEAD-luciferase reporter activity is inactive: -1.17 (compound concentration: 200 nM), inactive: 0.193 (compound concentration: 2 uM) and inactive: -0.668 (compound concentration: 10 uM).

For the molecule `c1ccc(N2CCCNCC2)cc1`, the TEAD-luciferase reporter activity was inactive: -1.12 (compound concentration: 200 nM), inactive: -1.95 (compound concentration: 2 uM) and inactive: -0.16 (compound concentration: 10 uM).

In the case of `CC(C)=CCC/C(C)=C/CC/C(C)=C/CC/C(C)=C/CC1=C(C)C(=O)c2ccccc2C1=O` [menatetre], the TEAD-luciferase reporter activity is inactive: -1.48 (compound concentration: 200 nM), inactive: -0.583 (compound concentration: 2 uM) and inactive: 1.2 (compound concentration: 10 uM).

For the molecule `CN1CCN(c2ccc(C(=O)NCc3cnc(C#N)nc3NCC(C)(C)C)cc2)CC1` [Dutacatib], the TEAD-luciferase reporter activity (compound concentration: 200 nM) was inactive: -2.1, the TEAD-luciferase reporter activity (compound concentration: 2 uM) is inactive: -0.483 and the TEAD-luciferase reporter activity (compound concentration: 10 uM) was inactive: 1.77.

As to `C[C@]12CC[C@@H]3c4ccc(OS(N)(=O)=O)cc4CC[C@H]3[C@@H]1CCC2=O`, the TEAD-luciferase reporter activity is, setting by setting: (compound concentration: 200 nM) inactive: 0.691; (compound concentration: 2 uM) inactive: 1.72; (compound concentration: 10 uM) inactive: 3.06.

With `Cc1cc(Cl)ccc1S(=O)(=O)NC[C@H]1C2CCC(CC2)[C@@H]1/C=C\CCCC(=O)O`, the TEAD-luciferase reporter activity (compound concentration: 200 nM) is inactive: 0.147, the TEAD-luciferase reporter activity (compound concentration: 2 uM) is inactive: 1.72 and the TEAD-luciferase reporter activity (compound concentration: 10 uM) is inactive: 2.48.

In the case of `CCCCCCCCCCCCCCOc1ccc(C(=O)OCC(F)(F)F)o1` [once thought to be DRM-01], the TEAD-luciferase reporter activity (compound concentration: 2 uM) is inactive: -0.34.

Turning to `CCCCCCCCCCCCCCOc1ccc(C(=O)OCC(F)(F)F)o1`, the TEAD-luciferase reporter activity is, setting by setting: (compound concentration: 200 nM) inactive: -1.99; (compound concentration: 10 uM) inactive: 2.08.

For `CSc1ccc(C(=O)/C=C/c2cc(C)c(OC(C)(C)C(=O)O)c(C)c2)cc1`, the TEAD-luciferase reporter activity is inactive: 0.99 (compound concentration: 200 nM), inactive: 0.685 (compound concentration: 2 uM) and inactive: 0.864 (compound concentration: 10 uM).

`CCCCCCCCN[C@H](C)[C@@H](O)c1ccc(SC(C)C)cc1` [suloctidil]: the TEAD-luciferase reporter activity was inactive: -0.663 (compound concentration: 200 nM), inactive: 3.54 (compound concentration: 2 uM) and inactive: 0.775 (compound concentration: 10 uM).

Regarding `FC(F)(F)c1ccc(Nc2nc(N3CCCCC3)nc3c2CCN(c2ncccc2C(F)(F)F)CC3)cc1`, the TEAD-luciferase reporter activity reads like this: (compound concentration: 200 nM) inactive: -0.727; (compound concentration: 2 uM) inactive: 0.673; (compound concentration: 10 uM) inactive: 0.921.

With `NCC(=O)N1CCC[C@H]1C(=O)N[C@@H](CCC(=O)O)C(=O)O`, the TEAD-luciferase reporter activity was inactive: -0.651 (compound concentration: 200 nM), inactive: -1.41 (compound concentration: 2 uM) and inactive: -1.04 (compound concentration: 10 uM).

In the case of `CCC1=C[C@@H]2CN(C1)Cc1c([nH]c3ccccc13)[C@@](C(=O)OC)(c1cc3c(cc1OC)N(C)[C@H]1[C@@](O)(C(=O)OC)[C@H](OC(C)=O)[C@]4(CC)C=CCN5CC[C@]31[C@@H]54)C2` [vinorelbine], the TEAD-luciferase reporter activity runs as follows: (compound concentration: 200 nM) inactive: -2.38; (compound concentration: 2 uM) inactive: 4.97; (compound concentration: 10 uM) inactive: 1.22.

Turning to `Cn1nc(N)nc1NCCCOc1cccc2c1CCC2N1CCCCC1` (stereo not drawn), the TEAD-luciferase reporter activity runs as follows: (compound concentration: 200 nM) inactive: -1.02; (compound concentration: 2 uM) inactive: -0.311; (compound concentration: 10 uM) inactive: 0.593.

Consider `C[C@H](CO)Nc1nc(Nc2ccc(S(N)(=O)=O)cc2)ncc1Br`, for which the TEAD-luciferase reporter activity (compound concentration: 2 uM) was inactive: -0.356.

On to `O=C(Nc1ccncc1)Nc1ccc(-c2nc(N3CCOCC3)nc(N3C4CCC3COC4)n2)cc1`, for which the TEAD-luciferase reporter activity (compound concentration: 200 nM) is inactive: 0.13, the TEAD-luciferase reporter activity (compound concentration: 2 uM) is inactive: -1.33 and the TEAD-luciferase reporter activity (compound concentration: 10 uM) is inactive: -1.11.

As to `CCN(CC)C(=S)[S-]` [disulfiram, Ora Bio-2], the TEAD-luciferase reporter activity runs as follows: (compound concentration: 200 nM) inactive: -1.13; (compound concentration: 2 uM) inactive: -1.95; (compound concentration: 10 uM) inactive: -2.36.

Take `CC(=O)N[C@H](C(=O)N[C@H](Cc1cn(C=O)c2ccccc12)C(=O)N[C@@H](Cc1ccccc1)C(=O)N(C)Cc1ccccc1)[C@@H](C)O`: the TEAD-luciferase reporter activity runs as follows: (compound concentration: 200 nM) inactive: -0.405; (compound concentration: 2 uM) inactive: -0.316; (compound concentration: 10 uM) inactive: -0.166.

With `CC1CC2C3CCC4=CC(=O)C=C[C@]4(C)C3(F)C(O)C[C@]2(C)C1(O)C(=O)COC(=O)c1cccc(S(=O)(=O)[O-])c1` (stereo partly drawn), the TEAD-luciferase reporter activity by setting is: (compound concentration: 200 nM) inactive: 1.85; (compound concentration: 2 uM) inactive: 3.53; (compound concentration: 10 uM) active: 5.94.

In the case of `N#Cc1ccc(Cn2cncc2CN2CCN(c3cccc(Cl)c3)C(=O)C2)cc1Oc1ccccc1` [Pharmaprojects No. 6518], the TEAD-luciferase reporter activity (compound concentration: 200 nM) is inactive: -1.51, the TEAD-luciferase reporter activity (compound concentration: 2 uM) was inactive: -1.64 and the TEAD-luciferase reporter activity (compound concentration: 10 uM) was inactive: -1.9.

With `C[C@H](C(=O)N(C)O)c1ccc2cc(OCc3ccc4ccccc4n3)ccc2c1`, the TEAD-luciferase reporter activity (compound concentration: 200 nM) was inactive: -0.722, the TEAD-luciferase reporter activity (compound concentration: 2 uM) is inactive: -0.971 and the TEAD-luciferase reporter activity (compound concentration: 10 uM) was inactive: -0.601.

In the case of `COC(=O)c1cc(O)cc(OC)c1C(=O)c1c(O)cc(C)cc1O`, the TEAD-luciferase reporter activity runs as follows: (compound concentration: 200 nM) inactive: 1.09; (compound concentration: 2 uM) inactive: -0.666; (compound concentration: 10 uM) inactive: 0.32.

With `CC(C)(COC(=O)Nc1ccccc1)COC(=O)Nc1ccccc1`, the TEAD-luciferase reporter activity was inactive: -1.26 (compound concentration: 200 nM), inactive: 0.624 (compound concentration: 2 uM) and inactive: 2.61 (compound concentration: 10 uM).

Turning to `C[C@@H]1C[C@H]2[C@@H]3C[C@H](F)C4=CC(=O)C=C[C@]4(C)[C@@]3(F)[C@@H](O)C[C@]2(C)[C@@]1(O)C(=O)SCCl`, the TEAD-luciferase reporter activity is inactive: -1.05 (compound concentration: 200 nM), inactive: 0.369 (compound concentration: 2 uM) and inactive: 0.944 (compound concentration: 10 uM).

As for `Cc1ccc(S(=O)(=O)Oc2ccc(O)c(S(=O)(=O)O)c2)cc1` [sultosilic acid piperazine], the TEAD-luciferase reporter activity by setting is: (compound concentration: 200 nM) inactive: -0.15; (compound concentration: 2 uM) inactive: -0.0785; (compound concentration: 10 uM) inactive: -0.337.
